{
  "source": "patent US20250115865A1",
  "about": "“MAMMALIAN SPERM PREPARATION METHOD, ARTIFICIAL INSEMINATION METHOD, IN-VITRO FERTILIZATION METHOD, AND MEDIUM” (Hiroshima University, priority 2022, published 2025)",
  "assay_type_in_all_cases": "cell-based",
  "key": {"[1]": {"test_system": "pig sperm", "test": "Acrosome retention rate of cultured pig sperm (PNA-FITC/PI staining, flow cytometry)", "details": "R848 3 nM; for acrosome retention effect: FIG. 4"}, "[2]": {"test_system": "pig sperm", "test": "Swim-up separation of cultured pig sperm; acrosome status by PNA staining, X-sperm ratio by real-time PCR", "details": "Glu medium pH 7.8 with R848, 1 hour 37° C."}, "[3]": {"test_system": "mouse sperm", "test": "Acrosome retention rate of cultured mouse sperm (PNA-FITC, flow cytometry)", "details": "Glu medium pH 7.8, R848 3 nM, 60 minutes, 37° C., FIG. 6"}},
  "note": "At least one structure is not confirmed: it was looked up by name or label, or the drawing left a doubt.",
  "data": [
    {"smiles": "CCOCc1nc2c(N)nc3ccccc3c2n1CC(C)(C)O", "note": "[R848, resiquimod]", "values": [
      {"measurement": "ratio of sperm retaining the acrosome relative to non-addition group", "setting": "[1]; modified HTF medium, pH 7.7 to 7.9, 37° C., 60 minutes, FIG. 2", "result": "significantly higher"},
      {"measurement": "acrosome retention effect", "setting": "[1]; pH 7.8, Free medium (no glucose, pyruvic acid, lactic acid)", "result": "not found"},
      {"measurement": "acrosome retention effect", "setting": "[1]; pH 7.8, Glu medium (no pyruvic acid, no lactic acid)", "result": "found"},
      {"measurement": "acrosome retention effect", "setting": "[1]; pH 7.8, Lac medium (no glucose, no pyruvic acid)", "result": "not found"},
      {"measurement": "acrosome retention effect", "setting": "[1]; pH 7.8, Pyr medium (no glucose, no lactic acid)", "result": "not found"},
      {"measurement": "effect that significantly increases the ratio of sperm having a normal acrosome relative to non-addition group", "setting": "[1]; pH 7.8, culture period 30 minutes, FIG. 3", "result": "not found"},
      {"measurement": "effect that significantly increases the ratio of sperm having a normal acrosome relative to non-addition group", "setting": "[1]; pH 7.8, culture period 60 minutes, FIG. 3", "result": "significantly found"},
      {"measurement": "acrosome retention rate relative to non-addition group", "setting": "[1]; pH 7.8, culture period 90 minutes, FIG. 3", "result": "same retention rate as in the non-addition group"},
      {"measurement": "X-sperm rate among the sperm that swam up, relative to non-addition group", "setting": "[2]; swim-up 30 minutes, upper layer, FIG. 5", "result": "significantly higher"},
      {"measurement": "acrosome status of sperm that remained in the lower layer", "setting": "[2]; swim-up from 2% PVP, lower layer", "result": "had a damaged acrosome"},
      {"measurement": "acrosome status of sperm that swam up into the upper layer", "setting": "[2]; swim-up from 2% PVP, upper layer", "result": "retained the acrosome"},
      {"measurement": "acrosome retention rate relative to non-addition group", "setting": "[3]", "result": "significantly higher"}
    ]}
  ]
}
